Assay results reported in paper PMC12811265.
These are yes or no findings as the source states them, for the method shown. In cells and extracts the contact can be indirect. Some results given as binding are weak or reduced against the parent protein; the word gives no strength.

The chains behind the UniProt entries cited, without tags or fusion partners.
UniProt P45974: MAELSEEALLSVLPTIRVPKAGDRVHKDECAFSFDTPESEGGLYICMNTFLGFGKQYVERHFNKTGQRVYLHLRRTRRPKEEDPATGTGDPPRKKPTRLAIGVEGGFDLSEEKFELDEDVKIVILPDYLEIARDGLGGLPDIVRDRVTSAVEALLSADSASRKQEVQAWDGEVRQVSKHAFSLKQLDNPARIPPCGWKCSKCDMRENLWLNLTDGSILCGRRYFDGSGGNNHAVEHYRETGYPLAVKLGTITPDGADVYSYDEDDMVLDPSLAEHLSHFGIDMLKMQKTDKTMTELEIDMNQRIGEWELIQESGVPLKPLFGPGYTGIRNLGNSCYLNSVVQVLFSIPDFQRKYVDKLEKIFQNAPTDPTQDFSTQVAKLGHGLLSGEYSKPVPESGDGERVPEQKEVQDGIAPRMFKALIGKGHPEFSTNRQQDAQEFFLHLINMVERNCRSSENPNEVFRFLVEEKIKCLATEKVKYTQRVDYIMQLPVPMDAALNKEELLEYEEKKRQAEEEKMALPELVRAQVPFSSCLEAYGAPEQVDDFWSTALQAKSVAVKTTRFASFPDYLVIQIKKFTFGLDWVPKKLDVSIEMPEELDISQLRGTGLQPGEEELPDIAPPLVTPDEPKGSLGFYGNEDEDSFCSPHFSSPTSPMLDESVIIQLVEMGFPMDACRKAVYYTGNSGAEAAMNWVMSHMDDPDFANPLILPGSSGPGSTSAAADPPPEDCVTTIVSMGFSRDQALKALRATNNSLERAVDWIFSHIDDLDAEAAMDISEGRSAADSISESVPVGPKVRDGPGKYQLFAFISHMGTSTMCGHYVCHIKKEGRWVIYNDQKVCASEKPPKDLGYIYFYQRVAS

Molecular target: T1, methyltransferase-like 14 (human (endogenous in RA-FLSs)) (UniProt Q9HCE5)
T1 sequence: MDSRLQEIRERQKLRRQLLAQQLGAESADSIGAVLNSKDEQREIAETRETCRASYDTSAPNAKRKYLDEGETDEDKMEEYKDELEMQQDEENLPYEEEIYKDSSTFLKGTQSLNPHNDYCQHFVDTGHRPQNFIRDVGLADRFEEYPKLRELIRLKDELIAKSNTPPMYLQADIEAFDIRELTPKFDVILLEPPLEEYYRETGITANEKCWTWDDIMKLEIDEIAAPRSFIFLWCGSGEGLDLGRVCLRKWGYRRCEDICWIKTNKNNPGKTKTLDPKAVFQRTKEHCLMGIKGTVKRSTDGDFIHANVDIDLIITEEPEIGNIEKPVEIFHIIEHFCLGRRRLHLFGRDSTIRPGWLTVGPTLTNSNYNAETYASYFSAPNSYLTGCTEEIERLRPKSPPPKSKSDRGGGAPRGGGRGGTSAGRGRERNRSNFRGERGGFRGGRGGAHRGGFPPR
Experiment: co-IP; RA-FLS lysates (IP lysis buffer with protease inhibitors) incubated overnight at 4 °C with anti-USP5 antibody, anti-METTL14 antibody or control IgG; protein A/G magnetic beads 2 h at 4 °C; bound proteins analysed by Western blot

binding: binds
Substance: ubiquitin-specific protease 5 (from UniProt P45974 1-858) (enzyme)
